± gives the standard deviation of the averaged measurements. Only a part is listed here, and it is no random draw. Most values lie at the level of the controls, where differences are scatter.
Compound: Nc1ncnc2c1ncn2[C@@H]1O[C@H](COP(=O)(O)OP(=O)(O)NP(=O)(O)O)[C@@H](O)[C@H]1O [adenylyl imidodiphosphate]
Experiment: NP40-soluble protein abundance relative to vehicle (solubility fold change) (ratio); higher = more soluble protein in presence of AMP-PNP
Conditions: concentration: 0.1mM
Method in brief: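 Eight concentrations, 0.1 to 10 mM, were tested on Jurkat crude lysate for 10 min at room temperature and then 3 min at 37 °C, in three independent experiments. The lysate was solubilised with 0.8% NP40 and benzonase, ultracentrifuged, and the supernatant TMT-labelled for LC-MS/MS. Each value is the fold change against the detergent-processed vehicle in its own replicate, from vsn-normalised intensities.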

Protein sequences, listed by entry. Tags and fused reporters are not part of them. Lines headed by an entry give the natural chain unless they say otherwise; changes in a name come on top.
UniProt Q8NAV1: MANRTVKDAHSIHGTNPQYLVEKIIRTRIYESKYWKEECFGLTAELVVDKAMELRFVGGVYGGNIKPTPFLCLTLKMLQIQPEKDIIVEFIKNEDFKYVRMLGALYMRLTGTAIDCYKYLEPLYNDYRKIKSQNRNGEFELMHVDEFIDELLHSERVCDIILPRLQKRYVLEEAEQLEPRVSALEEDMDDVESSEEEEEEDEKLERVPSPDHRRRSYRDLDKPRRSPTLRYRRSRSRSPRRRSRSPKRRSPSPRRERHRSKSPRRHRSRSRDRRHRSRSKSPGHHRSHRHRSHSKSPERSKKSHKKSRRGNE
UniProt Q8N3F8: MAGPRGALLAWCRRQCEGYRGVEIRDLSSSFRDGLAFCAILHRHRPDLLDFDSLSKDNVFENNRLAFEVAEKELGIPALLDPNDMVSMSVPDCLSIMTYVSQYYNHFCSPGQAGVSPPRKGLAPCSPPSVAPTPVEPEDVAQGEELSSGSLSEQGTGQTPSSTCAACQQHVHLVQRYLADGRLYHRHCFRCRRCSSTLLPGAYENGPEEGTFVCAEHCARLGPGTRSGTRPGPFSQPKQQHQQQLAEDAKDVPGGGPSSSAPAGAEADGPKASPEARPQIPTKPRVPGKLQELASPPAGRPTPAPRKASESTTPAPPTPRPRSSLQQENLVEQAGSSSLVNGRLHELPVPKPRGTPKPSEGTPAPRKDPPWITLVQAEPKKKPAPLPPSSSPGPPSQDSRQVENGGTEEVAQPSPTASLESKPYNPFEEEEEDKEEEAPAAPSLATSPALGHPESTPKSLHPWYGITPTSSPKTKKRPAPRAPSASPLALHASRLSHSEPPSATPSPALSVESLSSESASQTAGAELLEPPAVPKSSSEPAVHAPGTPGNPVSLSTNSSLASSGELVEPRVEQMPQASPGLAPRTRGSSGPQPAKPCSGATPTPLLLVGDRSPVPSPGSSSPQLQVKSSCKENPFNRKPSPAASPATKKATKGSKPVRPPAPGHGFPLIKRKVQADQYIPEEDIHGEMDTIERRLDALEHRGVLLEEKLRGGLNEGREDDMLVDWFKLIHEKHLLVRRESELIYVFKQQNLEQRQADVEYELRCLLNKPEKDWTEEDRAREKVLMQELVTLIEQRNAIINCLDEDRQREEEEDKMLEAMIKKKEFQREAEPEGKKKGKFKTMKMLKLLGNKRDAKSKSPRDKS
UniProt Q8N3Z6: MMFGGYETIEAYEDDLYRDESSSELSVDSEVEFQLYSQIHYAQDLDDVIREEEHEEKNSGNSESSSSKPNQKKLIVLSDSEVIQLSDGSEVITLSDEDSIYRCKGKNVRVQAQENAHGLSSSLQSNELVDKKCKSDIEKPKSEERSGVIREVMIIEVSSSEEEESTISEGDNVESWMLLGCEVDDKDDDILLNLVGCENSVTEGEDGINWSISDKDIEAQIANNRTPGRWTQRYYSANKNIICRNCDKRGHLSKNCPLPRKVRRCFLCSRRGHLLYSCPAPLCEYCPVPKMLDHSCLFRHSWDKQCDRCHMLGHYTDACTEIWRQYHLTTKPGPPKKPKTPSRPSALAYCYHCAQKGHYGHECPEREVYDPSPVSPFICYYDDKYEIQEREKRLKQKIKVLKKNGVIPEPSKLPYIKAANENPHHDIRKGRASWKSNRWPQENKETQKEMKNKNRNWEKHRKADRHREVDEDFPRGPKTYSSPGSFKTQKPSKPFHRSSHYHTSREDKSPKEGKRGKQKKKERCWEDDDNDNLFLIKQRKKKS
UniProt Q86U42: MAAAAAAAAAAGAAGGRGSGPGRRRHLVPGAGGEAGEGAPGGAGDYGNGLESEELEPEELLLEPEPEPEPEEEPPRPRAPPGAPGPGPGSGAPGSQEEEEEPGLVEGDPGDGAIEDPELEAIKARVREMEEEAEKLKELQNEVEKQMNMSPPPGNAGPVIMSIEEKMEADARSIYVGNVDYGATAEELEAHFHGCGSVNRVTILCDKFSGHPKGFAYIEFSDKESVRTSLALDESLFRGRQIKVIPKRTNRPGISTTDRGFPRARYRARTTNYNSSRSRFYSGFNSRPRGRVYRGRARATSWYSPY
UniProt Q8N9N5: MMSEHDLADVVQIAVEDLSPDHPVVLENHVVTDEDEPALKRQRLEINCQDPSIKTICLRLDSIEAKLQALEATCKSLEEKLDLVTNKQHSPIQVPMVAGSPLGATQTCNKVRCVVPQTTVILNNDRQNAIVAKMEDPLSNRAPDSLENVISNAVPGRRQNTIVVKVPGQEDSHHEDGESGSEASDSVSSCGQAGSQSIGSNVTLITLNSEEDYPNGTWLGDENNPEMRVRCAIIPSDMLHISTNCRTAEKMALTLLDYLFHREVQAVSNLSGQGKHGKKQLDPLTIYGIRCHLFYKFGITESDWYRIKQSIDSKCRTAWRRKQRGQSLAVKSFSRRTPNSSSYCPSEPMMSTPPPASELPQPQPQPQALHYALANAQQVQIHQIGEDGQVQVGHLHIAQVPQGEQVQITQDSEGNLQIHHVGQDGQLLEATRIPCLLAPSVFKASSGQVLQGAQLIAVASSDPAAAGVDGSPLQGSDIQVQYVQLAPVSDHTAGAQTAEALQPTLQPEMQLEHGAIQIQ
UniProt Q8IYD1, whole entry: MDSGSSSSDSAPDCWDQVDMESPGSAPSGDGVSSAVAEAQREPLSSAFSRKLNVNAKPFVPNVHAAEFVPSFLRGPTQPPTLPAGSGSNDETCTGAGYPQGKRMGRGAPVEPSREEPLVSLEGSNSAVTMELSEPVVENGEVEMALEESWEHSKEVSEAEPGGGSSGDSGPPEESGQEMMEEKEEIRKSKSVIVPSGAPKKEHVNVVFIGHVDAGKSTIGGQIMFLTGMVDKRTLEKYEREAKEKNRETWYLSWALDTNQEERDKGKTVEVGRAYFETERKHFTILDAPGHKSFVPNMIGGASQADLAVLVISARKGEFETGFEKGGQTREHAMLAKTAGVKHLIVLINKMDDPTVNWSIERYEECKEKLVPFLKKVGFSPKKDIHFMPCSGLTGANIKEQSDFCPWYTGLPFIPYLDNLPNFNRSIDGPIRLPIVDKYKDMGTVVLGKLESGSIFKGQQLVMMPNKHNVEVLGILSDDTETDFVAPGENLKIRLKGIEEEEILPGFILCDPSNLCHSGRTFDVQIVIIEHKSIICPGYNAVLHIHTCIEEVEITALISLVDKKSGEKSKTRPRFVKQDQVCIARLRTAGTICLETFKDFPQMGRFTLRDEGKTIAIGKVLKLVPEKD
UniProt Q86VP6: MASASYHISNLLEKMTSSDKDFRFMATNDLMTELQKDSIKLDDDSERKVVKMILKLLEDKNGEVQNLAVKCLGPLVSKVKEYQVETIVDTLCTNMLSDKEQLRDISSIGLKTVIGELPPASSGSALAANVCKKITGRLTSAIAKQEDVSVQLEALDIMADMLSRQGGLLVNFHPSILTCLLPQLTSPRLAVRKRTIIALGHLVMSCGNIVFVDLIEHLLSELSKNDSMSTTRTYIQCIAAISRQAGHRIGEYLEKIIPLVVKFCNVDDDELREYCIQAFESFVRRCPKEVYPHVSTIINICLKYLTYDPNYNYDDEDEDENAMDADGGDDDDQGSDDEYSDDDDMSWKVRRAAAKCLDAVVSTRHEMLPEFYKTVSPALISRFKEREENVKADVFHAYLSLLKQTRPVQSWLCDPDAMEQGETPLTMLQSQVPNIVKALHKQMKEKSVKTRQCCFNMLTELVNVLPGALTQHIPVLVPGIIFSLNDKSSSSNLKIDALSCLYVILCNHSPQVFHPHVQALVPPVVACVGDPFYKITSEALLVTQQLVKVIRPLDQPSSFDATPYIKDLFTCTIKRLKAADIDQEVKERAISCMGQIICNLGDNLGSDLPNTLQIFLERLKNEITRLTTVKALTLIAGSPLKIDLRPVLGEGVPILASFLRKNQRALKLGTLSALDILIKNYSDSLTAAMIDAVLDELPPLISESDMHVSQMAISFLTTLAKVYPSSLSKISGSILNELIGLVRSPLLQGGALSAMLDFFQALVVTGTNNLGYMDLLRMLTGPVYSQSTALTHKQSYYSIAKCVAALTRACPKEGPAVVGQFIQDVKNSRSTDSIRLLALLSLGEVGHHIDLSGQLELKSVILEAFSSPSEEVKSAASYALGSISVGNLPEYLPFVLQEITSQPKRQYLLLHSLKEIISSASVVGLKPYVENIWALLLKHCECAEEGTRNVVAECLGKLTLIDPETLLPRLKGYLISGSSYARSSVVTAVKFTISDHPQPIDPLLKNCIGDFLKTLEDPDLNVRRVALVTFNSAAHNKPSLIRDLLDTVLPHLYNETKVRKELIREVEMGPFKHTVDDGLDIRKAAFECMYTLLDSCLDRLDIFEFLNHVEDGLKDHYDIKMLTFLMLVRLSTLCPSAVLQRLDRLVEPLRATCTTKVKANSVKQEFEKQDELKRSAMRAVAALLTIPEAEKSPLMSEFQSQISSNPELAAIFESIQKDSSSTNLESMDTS
UniProt Q8IUX7: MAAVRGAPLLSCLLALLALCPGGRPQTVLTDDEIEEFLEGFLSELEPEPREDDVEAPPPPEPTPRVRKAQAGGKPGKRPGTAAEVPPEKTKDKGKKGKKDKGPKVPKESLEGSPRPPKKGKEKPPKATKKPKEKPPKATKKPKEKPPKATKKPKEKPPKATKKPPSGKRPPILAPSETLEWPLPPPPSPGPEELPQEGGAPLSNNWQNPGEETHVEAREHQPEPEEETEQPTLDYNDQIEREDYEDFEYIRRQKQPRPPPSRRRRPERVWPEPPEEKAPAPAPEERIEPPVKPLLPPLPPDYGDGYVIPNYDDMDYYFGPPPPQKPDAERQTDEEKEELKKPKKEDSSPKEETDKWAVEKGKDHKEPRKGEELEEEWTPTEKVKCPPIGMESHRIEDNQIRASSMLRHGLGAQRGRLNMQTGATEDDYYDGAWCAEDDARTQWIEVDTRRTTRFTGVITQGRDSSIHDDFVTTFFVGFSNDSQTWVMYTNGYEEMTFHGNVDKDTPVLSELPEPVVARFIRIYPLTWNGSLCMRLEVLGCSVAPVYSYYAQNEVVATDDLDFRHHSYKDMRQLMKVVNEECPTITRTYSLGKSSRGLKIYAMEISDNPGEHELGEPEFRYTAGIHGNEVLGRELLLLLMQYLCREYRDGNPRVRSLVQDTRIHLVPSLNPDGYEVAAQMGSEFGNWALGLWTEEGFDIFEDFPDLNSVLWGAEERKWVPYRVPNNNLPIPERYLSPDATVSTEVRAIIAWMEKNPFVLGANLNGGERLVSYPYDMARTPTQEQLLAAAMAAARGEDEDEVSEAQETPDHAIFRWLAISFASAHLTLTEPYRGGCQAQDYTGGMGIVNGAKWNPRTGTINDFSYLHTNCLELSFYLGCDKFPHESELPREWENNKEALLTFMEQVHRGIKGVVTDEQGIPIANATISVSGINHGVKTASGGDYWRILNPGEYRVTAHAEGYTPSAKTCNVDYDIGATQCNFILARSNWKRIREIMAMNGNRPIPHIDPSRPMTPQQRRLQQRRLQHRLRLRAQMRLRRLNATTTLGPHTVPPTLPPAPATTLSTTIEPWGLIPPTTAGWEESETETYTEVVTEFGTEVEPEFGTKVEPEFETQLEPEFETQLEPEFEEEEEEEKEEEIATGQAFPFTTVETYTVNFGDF
UniProt Q86U28: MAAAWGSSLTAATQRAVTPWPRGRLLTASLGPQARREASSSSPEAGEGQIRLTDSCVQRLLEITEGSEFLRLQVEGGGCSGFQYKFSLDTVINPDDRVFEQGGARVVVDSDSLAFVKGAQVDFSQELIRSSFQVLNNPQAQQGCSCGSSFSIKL
UniProt Q8IXQ3: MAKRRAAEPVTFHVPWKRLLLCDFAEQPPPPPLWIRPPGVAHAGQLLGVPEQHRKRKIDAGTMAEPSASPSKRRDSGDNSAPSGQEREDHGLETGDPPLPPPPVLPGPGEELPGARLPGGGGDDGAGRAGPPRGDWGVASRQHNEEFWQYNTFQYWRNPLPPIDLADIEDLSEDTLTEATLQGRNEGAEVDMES
UniProt Q7Z6M1: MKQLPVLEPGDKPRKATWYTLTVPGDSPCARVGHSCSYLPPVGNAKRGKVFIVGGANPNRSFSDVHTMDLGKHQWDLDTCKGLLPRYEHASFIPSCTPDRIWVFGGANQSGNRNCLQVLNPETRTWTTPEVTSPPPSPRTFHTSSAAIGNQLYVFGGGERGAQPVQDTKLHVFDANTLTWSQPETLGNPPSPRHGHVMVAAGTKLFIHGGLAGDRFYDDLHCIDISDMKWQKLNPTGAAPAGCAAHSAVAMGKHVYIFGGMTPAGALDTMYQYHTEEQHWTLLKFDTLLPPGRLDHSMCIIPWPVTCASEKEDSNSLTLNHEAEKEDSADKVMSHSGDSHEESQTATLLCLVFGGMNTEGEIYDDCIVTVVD
UniProt Q86V88: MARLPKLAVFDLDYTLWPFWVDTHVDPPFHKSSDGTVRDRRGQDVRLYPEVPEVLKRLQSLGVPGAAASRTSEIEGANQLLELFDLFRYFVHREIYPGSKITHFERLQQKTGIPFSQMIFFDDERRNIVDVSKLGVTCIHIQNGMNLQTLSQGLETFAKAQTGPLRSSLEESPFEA

Target	NP40-soluble protein abundance
PRPF38A (UniProt Q8NAV1)	1.007 ± 0.0069
UBR1 (UniProt Q8IWV7)	1.02 ± 0.031
UniProt Q86UU1 and related entries	0.997 ± 0.01
UniProt Q8NBM4 and related entries	0.973 ± 0.022
UniProt Q8N9N2-2|E9PKM6 and related entries	1.02 ± 0.032
UniProt Q86X76 and related entries	1.04 ± 0.051
UniProt Q8N573 and related entries	0.964 ± 0.025
GPR180 (UniProt Q86V85)	0.939 ± 0.01
MICALL1 (UniProt Q8N3F8)	0.955 ± 0.016
UniProt Q8IUQ4 and related entries	1.01 ± 0.024
UniProt Q86U86 and related entries	1.015 ± 0.0024
UniProt Q86TP1 and related entries	0.994 ± 0.027
UniProt Q8IU85 and related entries	1.01 ± 0.051
PCGF5 (UniProt Q86SE9)	0.958 ± 0.023
ZCCHC7 (UniProt Q8N3Z6)	1.02 ± 0.016
UniProt Q8NBN3 and related entries	0.979 ± 0.024
UniProt Q7Z7A4 and related entries	1.01 ± 0.073
UniProt Q86U42 and related entries	0.976 ± 0.024
UniProt Q7Z7A3	1.01 ± 0.027

Target	NP40-soluble protein abundance
UniProt Q8N9N5 and related entries	1 ± 0.051
GSPT2 (UniProt Q8IYD1)	1.02 ± 0.068
CAND1 (UniProt Q86VP6)	1.01 ± 0.04
UniProt Q8IUX7	0.968 ± 0.033
RAB43 (UniProt Q86YS6)	1.03 ± 0.046
UniProt Q8IZ73 and related entries	0.986 ± 0.049
ISCA2 (UniProt Q86U28)	1.09 ± 0.054
IRF2BP1 (UniProt Q8IU81)	0.986 ± 0.015
UniProt Q8N371	1.03 ± 0.077
UniProt Q8N4J0	1.02 ± 0.053
C9orf40 (UniProt Q8IXQ3)	0.989 ± 0.025
GLRX5 (UniProt Q86SX6)	0.983 ± 0.023
UniProt Q86X95	0.9639 ± 0.0095
ZNF579 (UniProt Q8NAF0)	0.9873 ± 0.0028
RABEPK (UniProt Q7Z6M1)	0.973 ± 0.034
UniProt Q8IY63 and related entries	1 ± 0.043
UniProt Q86V88 and related entries	0.9882 ± 0.0098
UniProt Q8NBP0 and related entries	1 ± 0.024

Same assay, conditions: concentration: 0.5mM

Target	NP40-soluble protein abundance
PRPF38A (UniProt Q8NAV1)	1 ± 0.013
UBR1 (UniProt Q8IWV7)	1.01 ± 0.059
UniProt Q86UU1 and related entries	0.999 ± 0.033
UniProt Q8NBM4 and related entries	0.963 ± 0.019
UniProt Q8N9N2-2|E9PKM6 and related entries	0.996 ± 0.021
UniProt Q86X76 and related entries	1.05 ± 0.07
UniProt Q8N573 and related entries	0.96 ± 0.025
GPR180 (UniProt Q86V85)	0.952 ± 0.012
MICALL1 (UniProt Q8N3F8)	0.968 ± 0.028
UniProt Q8IUQ4 and related entries	1.01 ± 0.02
UniProt Q86U86 and related entries	1.02 ± 0.012
UniProt Q86TP1 and related entries	1.005 ± 0.0066
UniProt Q8IU85 and related entries	0.992 ± 0.083
PCGF5 (UniProt Q86SE9)	0.994 ± 0.056
ZCCHC7 (UniProt Q8N3Z6)	1.012 ± 0.0054
UniProt Q8NBN3 and related entries	0.9694 ± 0.0032
UniProt Q7Z7A4 and related entries	0.982 ± 0.043
UniProt Q86U42 and related entries	1 ± 0.041
UniProt Q7Z7A3	1.012 ± 0.0056

Target	NP40-soluble protein abundance
UniProt Q8N9N5 and related entries	0.976 ± 0.026
GSPT2 (UniProt Q8IYD1)	1.05 ± 0.071
CAND1 (UniProt Q86VP6)	1 ± 0.03
UniProt Q8IUX7	0.955 ± 0.01
RAB43 (UniProt Q86YS6)	0.984 ± 0.06
UniProt Q8IZ73 and related entries	1 ± 0.032
ISCA2 (UniProt Q86U28)	0.997 ± 0.037
IRF2BP1 (UniProt Q8IU81)	0.9641 ± 0.0091
UniProt Q8N371	0.998 ± 0.015
UniProt Q8N4J0	0.99 ± 0.1
C9orf40 (UniProt Q8IXQ3)	1 ± 0.049
GLRX5 (UniProt Q86SX6)	1.08 ± 0.064
UniProt Q86X95	0.962 ± 0.027
ZNF579 (UniProt Q8NAF0)	1.01 ± 0.029
RABEPK (UniProt Q7Z6M1)	0.979 ± 0.017
UniProt Q8IY63 and related entries	1.04 ± 0.042
UniProt Q86V88 and related entries	0.987 ± 0.013
UniProt Q8NBP0 and related entries	0.979 ± 0.017

Source: the supplement of paper PMC6411743
